Patent US11419868B2, “Low dose product and method for treating diarrhea” (MAREGADE RX, LLC, priority 2016, dated 2022)

System: stress-induced visceral hypersensitivity
Assay: Chronic water avoidance stress (WAS) model, visceromotor response to colorectal distension
Conditions: oral, twice daily, alone or in combination

| Structure (SMILES) | effect on fecal output during water avoidance stress |
| --- | --- |
| O=C(O)COCCN1CCN(C(c2ccccc2)c2ccc(Cl)cc2)CC1 (centres unmarked) [cetirizine] | had no effects on fecal output |
| NC(N)=Nc1nc(CSCCC(N)=NS(N)(=O)=O)cs1 [famotidine] | had no effects on fecal output |
